Results are given in words; binding and its absence hold for the method and conditions named. Binding seen in cells or lysates may run through a third protein. A result given as binding can be weak or reduced; the word gives no strength.
Biological target: Flag-β-TRCP (UniProt Q9Y297)
Assay: co-IP; HeLa cells transfected with ZNRF3 wild type or degron mutants and β-TRCP; immunoblot of IP and WCL

Amino acid sequences for entries named in this document (tags omitted). A change or cut given only in a name is not applied to a line headed by its entry. Chains listed by the source or under a name are the forms on record and can include a tag or linker.
Flag-β-TRCP (Q9Y297, form named): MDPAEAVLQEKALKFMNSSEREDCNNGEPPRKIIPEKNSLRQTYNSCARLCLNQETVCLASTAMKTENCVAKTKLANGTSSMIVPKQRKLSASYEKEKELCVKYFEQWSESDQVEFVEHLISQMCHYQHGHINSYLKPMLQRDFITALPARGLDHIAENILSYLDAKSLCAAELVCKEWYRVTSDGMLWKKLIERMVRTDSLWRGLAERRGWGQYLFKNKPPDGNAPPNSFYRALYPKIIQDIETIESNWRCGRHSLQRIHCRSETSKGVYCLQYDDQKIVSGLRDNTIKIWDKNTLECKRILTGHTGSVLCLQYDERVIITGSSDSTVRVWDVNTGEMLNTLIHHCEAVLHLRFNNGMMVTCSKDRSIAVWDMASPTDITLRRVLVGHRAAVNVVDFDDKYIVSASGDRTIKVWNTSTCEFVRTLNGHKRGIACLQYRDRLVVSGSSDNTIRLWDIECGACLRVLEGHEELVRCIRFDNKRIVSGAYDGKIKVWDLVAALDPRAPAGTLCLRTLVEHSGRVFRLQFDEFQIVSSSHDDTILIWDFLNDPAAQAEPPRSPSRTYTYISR
UniProt Q9ULT6: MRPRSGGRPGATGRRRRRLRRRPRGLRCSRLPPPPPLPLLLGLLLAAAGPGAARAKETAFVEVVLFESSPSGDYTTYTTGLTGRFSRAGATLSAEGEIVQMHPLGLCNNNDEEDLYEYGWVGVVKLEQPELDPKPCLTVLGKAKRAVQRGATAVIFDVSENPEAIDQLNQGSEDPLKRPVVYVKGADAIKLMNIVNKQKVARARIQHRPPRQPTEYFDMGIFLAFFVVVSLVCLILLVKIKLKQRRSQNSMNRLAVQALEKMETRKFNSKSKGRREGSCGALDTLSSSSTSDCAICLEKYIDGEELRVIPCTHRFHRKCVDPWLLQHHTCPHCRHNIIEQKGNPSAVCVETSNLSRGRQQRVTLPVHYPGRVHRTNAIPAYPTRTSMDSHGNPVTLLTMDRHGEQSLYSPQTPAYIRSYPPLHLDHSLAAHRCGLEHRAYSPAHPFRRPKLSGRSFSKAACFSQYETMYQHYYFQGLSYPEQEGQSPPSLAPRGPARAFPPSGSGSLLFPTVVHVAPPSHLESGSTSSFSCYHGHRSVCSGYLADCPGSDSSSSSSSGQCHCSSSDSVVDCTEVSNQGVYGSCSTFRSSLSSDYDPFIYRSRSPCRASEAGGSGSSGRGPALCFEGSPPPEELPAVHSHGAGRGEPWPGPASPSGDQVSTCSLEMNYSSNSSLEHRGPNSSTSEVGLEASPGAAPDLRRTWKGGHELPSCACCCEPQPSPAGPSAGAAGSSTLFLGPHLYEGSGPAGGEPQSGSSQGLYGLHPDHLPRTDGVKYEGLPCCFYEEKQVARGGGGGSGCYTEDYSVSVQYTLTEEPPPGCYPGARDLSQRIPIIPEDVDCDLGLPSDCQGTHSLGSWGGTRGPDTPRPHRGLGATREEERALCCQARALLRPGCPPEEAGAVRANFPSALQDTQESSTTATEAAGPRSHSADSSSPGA

binding	Substance
binds	ZNRF3 with the ESG degron motif mutated (from UniProt Q9ULT6)
no binding	ZNRF3 with the SSG degron motif mutated (from UniProt Q9ULT6)
